{
  "sequences": {"note": "Protein sequences, listed by entry. Tags and fused reporters are not part of them. Residues count along the entry.", "UniProt P00742, residues 183-234": "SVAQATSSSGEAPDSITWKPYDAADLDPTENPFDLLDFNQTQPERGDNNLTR"},
  "source": "patent US20070041978A1",
  "binders": {"B1": {"name": "anti-F.X mouse antibody SB04 (antibody, V domains shown)", "VH": "QVQLQQSGPELVKPGASVKMSCKASGYTFTHFVLHWVKQNPGQGLEWIGYIIPYNDGTKYNEKFKGKATLTSDKSSSTAYMELSSLTSEDSAVYYCARGNRYDVGSYAMDYWGQGTSVTVSS", "VL": "DIVMTQSPSSLAVSVGEKVTMSCKSSQSLLYSSNQKNYLAWYQQKPGQSPKLLIYWASTRESGVPDRFTGSGSGTDFTLTISSVKAEDLAVYLCQQYYRFPYTFGGGTKLEIKR"}},
  "target": "fusion protein of F.X activated peptide (AP) with glutathione S transferase (GST) (human) (UniProt P00742)",
  "assay": "Western blotting of GST-AP (E. coli lysate, SDS-PAGE, Immobilon-P membrane), antibody at 2 µg/mL",
  "note": "No constants are given. Whether binding was seen depends on the method and setting. Some results given as binding are weak or reduced against the parent protein; the word gives no strength.",
  "data": [
    {"binder": "B1", "values": [
      {"measurement": "binding", "result": "binds"}
    ]}
  ]
}
